Here are results for one molecule from article PMC3623771.

Sequences of proteins named here, by UniProt entry; tags and fusion partners are left off.
UniProt Q03135: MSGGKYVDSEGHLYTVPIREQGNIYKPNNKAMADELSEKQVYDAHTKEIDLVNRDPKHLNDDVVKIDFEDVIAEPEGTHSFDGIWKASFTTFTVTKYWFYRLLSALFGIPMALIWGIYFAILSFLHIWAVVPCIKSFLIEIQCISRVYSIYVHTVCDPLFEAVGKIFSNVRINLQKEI

The target of the experiment is Caveolin-1 (Cav1) (UniProt Q03135). The experiment in a line: co-IP; AGS/Cav1 cells infected with H. pylori G27 (MOI = 100) for 16 h; total cell lysates subjected to CoIP using antibodies against Cav1 and DLC1, detection by WB.

These are yes or no findings as the source states them, for the method shown. Binding seen in cells or lysates may run through a third protein. Some binding calls cover weakened binding; strength is not graded here.

B1: p120 Rho GTPase-activating protein/deleted in liver cancer-1 (p120RhoGAP/DLC1), variant 4 (protein, UniProt Q96QB1-4 1-1017)
chain: MKLEISPHRKRSDDSDEDEPCAISGKWTFQRDSKRWSRLEEFDVFSPKQDLVPGSPDDSHPKDGPSPGGTLMDLSERQEVSSVRSLSSTGSLPSHAPPSEDAATPRTNSVISVCSSSNLAGNDDSFGSLPSPKELSSFSFSMKGHEKTAKSKTRSLLKRMESLKLKSSHHSKHKAPSKLGLIISGPILQEGMDEEKLKQLNCVEISALNGNRINVPMVRKRSVSNSTQTSSSSSQSETSSAVSTPSPVTRTRSLSACNKRVGMYLEGFDPFNQSTFNNVVEQNFKNRESYPEDTVFYIPEDHKPGTFPKALTNGSFSPSGNNGSVNWRTGSFHGPGHISLRRENSSDSPKELKRRNSSSSMSSRLSIYDNVPGSILYSSSGDLADLENEDIFPELDDILYHVKGMQRIVNQWSEKFSDEGDSDSALDSVSPCPSSPKQIHLDVDNDRTTPSDLDSTGNSLNEPEEPSEIPERRDSGVGASLTRSNRHRLRWHSFQSSHRPSLNSVSLQINCQSVAQMNLLQKYSLLKLTALLEKYTPSNKHGFSWAVPKFMKRIKVPDYKDRSVFGVPLTVNVQRTGQPLPQSIQQAMRYLRNHCLDQVGLFRKSGVKSRIQALRQMNEGAIDCVNYEGQSAYDVADMLKQYFRDLPEPLMTNKLSETFLQIYQYVPKDQRLQAIKAAIMLLPDENREVLQTLLYFLSDVTAAVKENQMTPTNLAVCLAPSLFHLNTLKRENSSPRVMQRKQSLGKPDQKDLNENLAATQGLAHMIAECKKLFQVPEEMSRCRNSYTEQELKPLTLEALGHLGNDDSADYQHFLQDCVDGLFKEVKEKFKGWVSYSTSEQAELSYKKVSEGPPLRLWRSVIEVPAVPEEILKRLLKEQHLWDVDLLDSKVIEILDSQTEIYQYVQNSMAPHPARDYVVLRTWRTNLPKGACALLLTSVDHDRAPVVGVRVNVLLSRYLIEPCGPGKSKLTYMCRVDLRGHMPEWYTKSFGHLCAAEVVKIRDSFSNQNTETKDTKSR
In the case of B1, the binding entry is reported as “binds”.
